Assay results reported in patent US10525115B2 (Immatics Biotechnologies GmbH, priority 2014, dated 2020).

B1: MAGED1 melanoma antigen family D, 1: established AML-associated antigen, source protein of the HLA ligands listed under it (protein, UniProt Q9Y5V3 1-778, looked up)
Melanoma-associated antigen D1: MAQKMDCGAGLLGFQAEASVEDSALLMQTLMEAIQISEAPPTNQATAAASPQSSQPPTANEMADIQVSAAAARPKSAFKVQNATTKGPNGVYDFSQAHNAKDVPNTQPKAAFKSQNATPKGPNAAYDFSQAATTGELAANKSEMAFKAQNATTKVGPNATYNFSQSLNANDLANSRPKTPFKAWNDTTKAPTADTQTQNVNQAKMATSQADIETDPGISEPDGATAQTSADGSQAQNLESRTIIRGKRTRKINNLNVEENSSGDQRRAPLAAGTWRSAPVPVTTQNPPGAPPNVLWQTPLAWQNPSGWQNQTARQTPPARQSPPARQTPPAWQNPVAWQNPVIWPNPVIWQNPVIWPNPIVWPGPVVWPNPLAWQNPPGWQTPPGWQTPPGWQGPPDWQGPPDWPLPPDWPLPPDWPLPTDWPLPPDWIPADWPIPPDWQNLRPSPNLRPSPNSRASQNPGAAQPRDVALLQERANKLVKYLMLKDYTKVPIKRSEMLRDIIREYTDVYPEIIERACFVLEKKFGIQLKEIDKEEHLYILISTPESLAGILGTTKDTPKLGLLLVILGVIFMNGNRASEAVLWEALRKMGLRPGVRHPLLGDLRKLLTYEFVKQKYLDYRRVPNSNPPEYEFLWGLRSYHETSKMKVLRFIAEVQKRDPRDWTAQFMEAADEALDALDAAAAEAEARAEARTRMGIGDEAVSGPWSWDDIEFELLTWDEEGDFGDPWSRIPFTFWARYHQNARSRFPQTFAGPIIGPGGTASANFAANFGAIGFFWVE
B2: NUSAP1 nucleolar and spindle associated protein 1: established AML-associated antigen, source protein of the HLA ligands listed under it (protein, UniProt Q9BXS6 1-441, looked up)
Nucleolar and …: MIIPSLEELDSLKYSDLQNLAKSLGLRANLRATKLLKALKGYIKHEARKGNENQDESQTSASSCDETEIQISNQEEAERQPLGHVTKTRRRCKTVRVDPDSQQNHSEIKISNPTEFQNHEKQESQDLRATAKVPSPPDEHQEAENAVSSGNRDSKVPSEGKKSLYTDESSKPGKNKRTAITTPNFKKLHEAHFKEMESIDQYIERKKKHFEEHNSMNELKQQPINKGGVRTPVPPRGRLSVASTPISQRRSQGRSCGPASQSTLGLKGSLKRSAISAAKTGVRFSAATKDNEHKRSLTKTPARKSAHVTVSGGTPKGEAVLGTHKLKTITGNSAAVITPFKLTTEATQTPVSNKKPVFDLKASLSRPLNYEPHKGKLKPWGQSKENNYLNQHVNRINFYKKTYKQPHLQTKEEQRKKREQERKEKKAKVLGMRRGLILAED
B3: CCNA1 cyclin A1: established AML-associated antigen, source protein of the HLA ligands listed under it (protein, UniProt P78396 1-465, looked up)
Cyclin-A1: METGFPAIMYPGSFIGGWGEEYLSWEGPGLPDFVFQQQPVESEAMHCSNPKSGVVLATVARGPDACQILTRAPLGQDPPQRTVLGLLTANGQYRRTCGQGITRIRCYSGSENAFPPAGKKALPDCGVQEPPKQGFDIYMDELEQGDRDSCSVREGMAFEDVYEVDTGTLKSDLHFLLDFNTVSPMLVDSSLLSQSEDISSLGTDVINVTEYAEEIYQYLREAEIRHRPKAHYMKKQPDITEGMRTILVDWLVEVGEEYKLRAETLYLAVNFLDRFLSCMSVLRGKLQLVGTAAMLLASKYEEIYPPEVDEFVYITDDTYTKRQLLKMEHLLLKVLAFDLTVPTTNQFLLQYLRRQGVCVRTENLAKYVAELSLLEADPFLKYLPSLIAAAAFCLANYTVNKHFWPETLAAFTGYSLSEIVPCLSELHKAYLDIPHRPQQAIREKYKASKYLCVSLMEPPAVLLLQ
B4: PRTN3 proteinase 3: established AML-associated antigen, source protein of the HLA ligands listed under it (protein, UniProt P24158 28-248, looked up)
Myeloblastin: IVGGHEAQPHSRPYMASLQMRGNPGSHFCGGTLIHPSFVLTAAHCLRDIPQRLVNVVLGAHNVRTQEPTQQHFSVAQVFLNNYDAENKLNDVLLIQLSSPANLSASVATVQLPQQDQPVPHGTQCLAMGWGRVGAHDPPAQVLQELNVTVVTFFCRPHNICTFVPRRKAGICFGDSGGPLICDGIIQGIDSFVIWGCATRLFPDFFTRVALYVDWIRSTLR
B5: MPO myeloperoxidase: established AML-associated antigen, source protein of the HLA ligands listed under it (protein, UniProt P05164 165-745, looked up)
Myeloperoxidase: VTCPEQDKYRTITGMCNNRRSPTLGASNRAFVRWLPAEYEDGFSLPYGWTPGVKRNGFPVALARAVSNEIVRFPTDQLTPDQERSLMFMQWGQLLDHDLDFTPEPAARASFVTGVNCETSCVQQPPCFPLKIPPNDPRIKNQADCIPFFRSCPACPGSNITIRNQINALTSFVDASMVYGSEEPLARNLRNMSNQLGLLAVNQRFQDNGRALLPFDNLHDDPCLLTNRSARIPCFLAGDTRSSEMPELTSMHTLLLREHNRLATELKSLNPRWDGERLYQEARKIVGAMVQIITYRDYLPLVLGPTAMRKYLPTYRSYNDSVDPRIANVFTNAFRYGHTLIQPFMFRLDNRYQPMEPNPRVPLSRVFFASWRVVLEGGIDPILRGLMATPAKLNRQNQIAVDEIRERLFEQVMRIGLDLPALNMQRSRDHGLPGYNAWRRFCGLPQPETVGQLGTVLRNLKLARKLMEQYGTPNNIDIWMGGVSEPLKRKGRVGPLLACIIGTQFRKLRDGDRFWWENEGVFSMQQRQALAQISLPRIICDNTGITTVSKNNIFMSNSYPRDFVNCSTLPALNLASWREAS
B6: RGS5 regulator of G-protein signaling 5: established AML-associated antigen, source protein of the HLA ligands listed under it (protein, UniProt O15539 1-181, looked up)
Regulator of G-protein …: MCKGLAALPHSCLERAKEIKIKLGILLQKPDSVGDLVIPYNEKPEKPAKTQKTSLDEALQWRDSLDKLLQNNYGLASFKSFLKSEFSEENLEFWIACEDYKKIKSPAKMAEKAKQIYEEFIQTEAPKEVNIDHFTKDITMKNLVEPSLSSFDMAQKRIHALMEKDSLPRFVRSEFYQELIK

Columns and labels:
Parameters in all cases: species or system human
primary AML samples = test: HLA class I ligandome analysis (W6/32 immunoaffinity purification, LC-MS/MS) of primary AML samples; settings: for Number of positive AMLs: HLA class I ligandome; for Number of positive AMLs / rep. frequency % in AMLs: 15 AML samples
BMNC of healthy donors = test: HLA class I ligandome analysis (LC-MS/MS) of healthy donor BMNC; settings: for Number of positive healthy donors (BMNC): HLA class I ligandome, second figure of the cell; for Number of positive healthy donors (BMNC) / rep. frequency % in healthy donors (BMNC): 5 BMNC samples
PBMC of healthy donors = test: HLA class I ligandome analysis (LC-MS/MS) of healthy donor PBMC; settings: for Number of positive healthy donors (PBMC): HLA class I ligandome, first figure of the cell; for Number of positive healthy donors (PBMC) / rep. frequency % in healthy donors (PBMC): 30 PBMC samples
[1] = source protein level, HLA class I
[2] = HLA class I, source protein level

| Molecule | Number of positive AMLs (primary AML samples) | rep. frequency % in AMLs (primary AML samples; [1]) [%] | Number of positive healthy donors (BMNC) (BMNC of healthy donors) | rep. frequency % in healthy donors (BMNC) (BMNC of healthy donors; source protein level) [%] | Number of positive healthy donors (PBMC) (PBMC of healthy donors) | rep. frequency % in healthy donors (PBMC) (PBMC of healthy donors; source protein level) [%] | detected/represented in AML patient ligandomes (positive/total) (primary AML samples; [2]) | rep. frequency % in AMLs (primary AML samples; source protein level, HLA class I, listed as MPO) [%] | representation in normal BMNC ligandomes (positive/total) (BMNC of healthy donors; [2]) | rep. frequency % in healthy donors (BMNC) (BMNC of healthy donors; source protein level, listed as MPO) [%] | representation in PBMC ligandomes (positive/total) (PBMC of healthy donors; [2]) |
| --- | --- | --- | --- | --- | --- | --- | --- | --- | --- | --- | --- |
| B1 | 6 | 40.0 | 3 | 60.0 | 15 | 50.0 | – | – | – | – | – |
| B2 | – | – | 2 | 40.0 | 2 | 6.6 | – | – | – | – | – |
| B3 | 2 | 13.3 | 0 | 0.0 | 0 | 0.0 | – | – | – | – | – |
| B4 | 2 | 13.3 | 4 | 80.0 | 2 | 6.6 | – | – | – | – | – |
| B5 | 6 | 40.0 | 3 | 60.0 | 0 | 0.0 | 6/15 | 40 | 3/5 | 60 | 0/30 |
| B6 | 2 | 13.3 | 0 | 0.0 | 1 | 3.3 | – | – | – | – | – |
